Measurements taken from PubChem BioAssay AID445 (National Center for Advancing Translational Sciences (NCATS), 2006).
This is one part of the list. Further columns of the screen follow, without active or inactive calls. The list favours compounds with an active or inconclusive main result. The note in brackets gives the kind of curve behind each potency; many fits are weak.

Experiment: IkB Signaling
Settings: ABC-DLBCL IkBa-CBG/CBR dual luciferase ratio (green luciferase fused to IkBa over red control in OCI-Ly3 lymphoma cells), 4 h; measured here: control luc red channel unless noted
How it was run: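 Curves were fitted separately to fusion (green), unfused (red) and ratio luminescence, then classed by r2, magnitude and activity. Cells: OCI-Ly3, 4 h compound plus doxycycline at 37C; 10 uM MG-132 defined full response.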

SMILES | AC50
CCOC(=O)N1CCc2c(sc3c2c(=O)n(CCc2ccccc2)c(=O)n3Cc2ccc(F)cc2)C1 | 12.6 µM [falling, partial curve]
O=C(CSc1nc(-c2ccccc2)no1)N1CCCCC1 | 1.26 µM [falling, partial curve]
Cc1ccccc1-c1nn2c(=O)cc(CN3CCN(C(=O)c4ccc(C(C)(C)C)cc4)CC3)nc2s1 | 31.6 µM [falling, single point]
CCCCCCOC(=O)C(C#N)c1nc2ccccc2nc1N1CCN(C)CC1 (stereo not drawn) | 39.8 µM [falling, partial curve]
CCOc1ccccc1-n1cc2c(c1-c1ccc(OC)cc1)c(=O)n(C)c(=O)n2C | 39.8 µM [falling, single point]
COC(=O)c1ccc(NC(=O)CN2CCN(c3ccc(Cl)cc3)CC2)cc1 | 20 µM [falling, partial curve]
Cc1ccc(-n2c(SCC(=O)NCc3ccc(F)cc3)nc3c([nH]c4ccccc43)c2=O)cc1 | 3.16 µM [rising, partial curve]
Cc1cc(C)cc(NC(=O)CCc2c(C)nn(-c3ccc(N4CCCC4)nn3)c2C)c1 | 15.8 µM [falling, single point]
COc1cc2c(cc1OC)C(COc1ccc(F)cc1)N(C(=O)Cc1ccc(F)cc1)CC2 (stereo not drawn) | 39.8 µM [falling, single point]
COc1ccccc1C(=O)NCCc1nc2ccccc2n1C | 10 µM [falling, partial curve]
Cc1ccc(Nc2c(-c3ccncc3)nc3ccc(C)cn23)cc1 | 31.6 µM [falling, partial curve]
Cc1cc(NC(=O)C2CCCCC2)nc2c1c(=O)oc1ccccc12 | 20 µM [falling, partial curve]
Cc1ccc(CN(C(=O)COc2cccc([N+](=O)[O-])c2)c2ccccn2)cc1 | 25.1 µM [falling, single point]
CCOC(=O)C1CCN(c2ncnc3c2nnn3C)CC1 | 6.31 µM [rising, partial curve]
O=C(Nc1ccc2c(c1)OCO2)c1noc2c1CCCCC2 | 5.01 µM [falling, partial curve]
CC(C)NC(=O)c1ccc(-n2c(-c3ccccc3)cc3c2CCCCC3)cc1 | 10 µM [falling, partial curve]
Cc1cc(C)cc(OCC(=O)Nc2ccc(-c3nc4ccccc4s3)cc2)c1 | 0.398 µM [rising, full curve]
Cn1nnc2c(N3CCN(c4ccccc4F)CC3)ncnc21 | 5.01 µM [rising, partial curve]

Two compounds picked at random from those above:
SMILES | AC50
O=C(CSc1nc(-c2ccccc2)no1)N1CCCCC1 | 1.26 µM [falling, partial curve]
Cc1ccc(Nc2c(-c3ccncc3)nc3ccc(C)cn23)cc1 | 31.6 µM [falling, partial curve]
